For some of these results: No signal at the amounts used counts as a negative. For some of these results: Tags and fusion partners may be left off the protein sequences shown. Construct, isoform or probe ends are uncertain for at least one entry.
Experiments:
[1] = target: T1, T4 β-glucosyltransferase (Enterobacteria phage T4) (UniProt P04547); assay: binding assay; conditions: purified recombinant protein, protein details: SEQ:3 is the coding DNA, variant of PCR product, unmodified C
T1 sequence: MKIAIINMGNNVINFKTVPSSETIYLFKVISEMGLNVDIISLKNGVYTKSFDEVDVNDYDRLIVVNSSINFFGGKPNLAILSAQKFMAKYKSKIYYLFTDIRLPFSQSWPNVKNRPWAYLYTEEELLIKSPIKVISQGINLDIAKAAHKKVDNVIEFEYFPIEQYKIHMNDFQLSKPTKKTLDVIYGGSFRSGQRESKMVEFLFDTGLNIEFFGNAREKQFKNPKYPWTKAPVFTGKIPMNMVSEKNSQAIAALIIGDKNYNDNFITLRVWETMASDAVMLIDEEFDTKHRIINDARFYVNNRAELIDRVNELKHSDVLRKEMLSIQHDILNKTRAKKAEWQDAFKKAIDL

BisI = assay: enzyme reaction in vitro; conditions: 3 h, incomplete cleavage, purified recombinant protein, variant of PCR product, unmodified C
GlaI = assay: enzyme reaction in vitro; conditions: purified recombinant protein

AGAATTGGTTAATTGGTTGTAACACTGGCAGAGCATTACGCTGACTTGACGGGACGGCGGCTTTGTTGAATAAATCGAACTTTTGCTGAGTTGAAGGATCAGATCACGCATCTTCCCGACAACGCAGACCGTTCCGTGGCAAAGCAAAAGTTCAAAATCACCAACTGGTCCACCTACAACAAAGCTCTCATCAACCGTGGCTCCCTCACTTTCTGGCTGGATGATGGGGCGATTCAGGCCTGGTATGAGTCAGCAACACCTTCTTCACGAGGCAGACCTCAGCGCTCAAAGATGCAGGGGTAAAAGCTAACCGCATCTTTACCGACAAGGCATCCGGCAGTTCAACAGATCGGGAAGGGCTGGATTTGCTGAGGATGAAGGTGGAGGAAGGTGATGTCATTCTGGTGAAGAAGCTCGACCGTCTTGGCCGCGACACCGCCGACATGATCCAACTGATAAAAGAGTTTGATGCTCAGGGTGTAGCGGTTCGGTTTATTGACGACGGGATCAGTACCGACGGTGATATGGGGCAAATGGTGGTCACCATCCTGTCGGCTGTGGCACAGGCTGAACGCCGGAGGATCCTAGAGCGCACGAATGAGGGCCGACAGGAAGCAAAGCTGAAAGGAATCAAATTTGGCCGCAGGCGTACCGTGGACAGGAACGTCGTGCTGACGCTTCATCAGAAGGGCACTGGTGCAACGGAAATTGCTCATCAGCTCAGTATTGCCCGCTCCACGGTTTATAAAATTCTTGAAGACGAAAGGGCCTCGTGATACGCCTATTTTTATAGGTTAATGTCATGATAATAATGGTTTCTTAGACGTCAGGTGGCACTTTTCGGGGAAATGTGCGCGGAACCCCTATTTGTTTATTTTTCTAAATACATTCAAATAT (double strand) [PCR product, 5hmC]
binding result ([1]; all cytosines 5hmC, glucosylation with UDPG read by MspI protection): binds | activity on this sequence (BisI; all cytosines 5hmC, equal to 5mC): active | activity on this sequence (GlaI; all cytosines 5hmC, 3 h, essentially equal to 5mC, variant of PCR product, unmodified C): active

AGAATTGGTTAATTGGTTGTAACACTGGCAGAGCATTACGCTGACTTGACGGGACGGCGGCTTTGTTGAATAAATCGAACTTTTGCTGAGTTGAAGGATCAGATCACGCATCTTCCCGACAACGCAGACCGTTCCGTGGCAAAGCAAAAGTTCAAAATCACCAACTGGTCCACCTACAACAAAGCTCTCATCAACCGTGGCTCCCTCACTTTCTGGCTGGATGATGGGGCGATTCAGGCCTGGTATGAGTCAGCAACACCTTCTTCACGAGGCAGACCTCAGCGCTCAAAGATGCAGGGGTAAAAGCTAACCGCATCTTTACCGACAAGGCATCCGGCAGTTCAACAGATCGGGAAGGGCTGGATTTGCTGAGGATGAAGGTGGAGGAAGGTGATGTCATTCTGGTGAAGAAGCTCGACCGTCTTGGCCGCGACACCGCCGACATGATCCAACTGATAAAAGAGTTTGATGCTCAGGGTGTAGCGGTTCGGTTTATTGACGACGGGATCAGTACCGACGGTGATATGGGGCAAATGGTGGTCACCATCCTGTCGGCTGTGGCACAGGCTGAACGCCGGAGGATCCTAGAGCGCACGAATGAGGGCCGACAGGAAGCAAAGCTGAAAGGAATCAAATTTGGCCGCAGGCGTACCGTGGACAGGAACGTCGTGCTGACGCTTCATCAGAAGGGCACTGGTGCAACGGAAATTGCTCATCAGCTCAGTATTGCCCGCTCCACGGTTTATAAAATTCTTGAAGACGAAAGGGCCTCGTGATACGCCTATTTTTATAGGTTAATGTCATGATAATAATGGTTTCTTAGACGTCAGGTGGCACTTTTCGGGGAAATGTGCGCGGAACCCCTATTTGTTTATTTTTCTAAATACATTCAAATAT (double strand) [PCR product, 5mC]
binding result ([1]; all cytosines 5mC, glucosylation specific to 5hmC): no binding | activity on this sequence (BisI; all cytosines 5mC): active | activity on this sequence (GlaI; all cytosines 5mC, 3 h digestion, variant of PCR product, unmodified C): active

AGAATTGGTTAATTGGTTGTAACACTGGCAGAGCATTACGCTGACTTGACGGGACGGCGGCTTTGTTGAATAAATCGAACTTTTGCTGAGTTGAAGGATCAGATCACGCATCTTCCCGACAACGCAGACCGTTCCGTGGCAAAGCAAAAGTTCAAAATCACCAACTGGTCCACCTACAACAAAGCTCTCATCAACCGTGGCTCCCTCACTTTCTGGCTGGATGATGGGGCGATTCAGGCCTGGTATGAGTCAGCAACACCTTCTTCACGAGGCAGACCTCAGCGCTCAAAGATGCAGGGGTAAAAGCTAACCGCATCTTTACCGACAAGGCATCCGGCAGTTCAACAGATCGGGAAGGGCTGGATTTGCTGAGGATGAAGGTGGAGGAAGGTGATGTCATTCTGGTGAAGAAGCTCGACCGTCTTGGCCGCGACACCGCCGACATGATCCAACTGATAAAAGAGTTTGATGCTCAGGGTGTAGCGGTTCGGTTTATTGACGACGGGATCAGTACCGACGGTGATATGGGGCAAATGGTGGTCACCATCCTGTCGGCTGTGGCACAGGCTGAACGCCGGAGGATCCTAGAGCGCACGAATGAGGGCCGACAGGAAGCAAAGCTGAAAGGAATCAAATTTGGCCGCAGGCGTACCGTGGACAGGAACGTCGTGCTGACGCTTCATCAGAAGGGCACTGGTGCAACGGAAATTGCTCATCAGCTCAGTATTGCCCGCTCCACGGTTTATAAAATTCTTGAAGACGAAAGGGCCTCGTGATACGCCTATTTTTATAGGTTAATGTCATGATAATAATGGTTTCTTAGACGTCAGGTGGCACTTTTCGGGGAAATGTGCGCGGAACCCCTATTTGTTTATTTTTCTAAATACATTCAAATAT (double strand) [PCR product, unmodified C]
activity on this sequence (GlaI; methylation dependent, digests only 5mC or 5hmC DNA): not active

Source: patent US20210371910
